The values below come from article PMC5996148.

Chains of the proteins cited; added tags and fusions are not shown. Lines headed by an entry give the natural chain unless they say otherwise; changes in a name come on top.
UniProt P38646: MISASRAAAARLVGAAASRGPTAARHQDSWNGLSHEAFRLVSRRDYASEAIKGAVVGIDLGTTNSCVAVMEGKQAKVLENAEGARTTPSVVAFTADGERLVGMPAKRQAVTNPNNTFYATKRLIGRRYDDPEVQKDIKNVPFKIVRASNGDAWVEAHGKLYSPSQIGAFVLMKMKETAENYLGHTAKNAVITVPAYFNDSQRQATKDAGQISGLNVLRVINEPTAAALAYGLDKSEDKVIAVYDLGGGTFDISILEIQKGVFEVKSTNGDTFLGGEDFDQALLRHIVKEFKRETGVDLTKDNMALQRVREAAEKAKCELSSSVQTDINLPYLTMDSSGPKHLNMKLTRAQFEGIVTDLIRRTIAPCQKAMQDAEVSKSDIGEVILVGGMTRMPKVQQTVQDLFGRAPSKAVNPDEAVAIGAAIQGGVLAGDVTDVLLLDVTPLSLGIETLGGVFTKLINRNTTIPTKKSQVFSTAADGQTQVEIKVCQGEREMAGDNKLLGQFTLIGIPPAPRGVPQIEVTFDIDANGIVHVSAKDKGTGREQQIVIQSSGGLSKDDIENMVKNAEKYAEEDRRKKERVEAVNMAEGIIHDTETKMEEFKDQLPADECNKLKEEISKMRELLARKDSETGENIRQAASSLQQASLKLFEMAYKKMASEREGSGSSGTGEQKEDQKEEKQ
UniProt Q9BUP3: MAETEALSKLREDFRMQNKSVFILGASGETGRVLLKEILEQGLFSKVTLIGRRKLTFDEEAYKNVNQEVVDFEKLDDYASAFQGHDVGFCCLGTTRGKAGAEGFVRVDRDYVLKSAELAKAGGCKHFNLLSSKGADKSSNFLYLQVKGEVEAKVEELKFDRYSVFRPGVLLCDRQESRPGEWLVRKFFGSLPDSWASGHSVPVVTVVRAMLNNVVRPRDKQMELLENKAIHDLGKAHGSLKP

Several values for one entry are separate records, joined by “and”; a condition that tells them apart may be missing. Equal entries are not always repeated. The list shows a part of the results. For some of these results: Construct or isoform of the protein are uncertain.

Holding throughout (experiment): protein microarray (ProtoArray v5.0), streptavidin-Alexa Fluor 647
Common to all, as to conditions: 3'-biotin; 20 mM Tris (pH 7.5), 5 mM MgCl2, 100 mM KCl, 0.1% Tween-20, A/T-rich and random oligonucleotide blockers; temperature not stated; high values mean tight binding

Assay [1] has as its target HSPA9 (UniProt P38646).
Assay [2] deals with HSPBAP1 (human).
Assay [3] concerns HSPBP1 (human).
The subject of assay [4] is HSPC111 (human).
In assay [5] the test system is HSPC142 (human).
Assay [6] relates to HSPC152 (human).
The subject of assay [7] is HSPE1 (human).
In assay [8] the test system is HSPH1 (human).
The target of assay [9] is HTATIP2 (UniProt Q9BUP3).
Assay [10] relates to HTR1E (human).

Turning to “GGGAGGCTGAGGCAGG [G4-1 biotinylated (PQS2)]”, the binding signal in [1] is -0.335 z-score; in [2], -0.312 z-score and -0.33 z-score; in assay [3], -0.372 z-score; in assay [4] it was 7.99 z-score; in assay [5] it was -0.346 z-score; in assay [6], -0.326 z-score and -0.297 z-score. Further, the binding signal is -0.324 z-score in assay [7], -0.321 z-score in assay [8], -0.344 z-score in assay [9] and -0.299 z-score in assay [10].
